{"source": "the supplement of paper PMC8728848", "binders": {"B1": {"name": "Protein L(B1-B4) (Finegoldia magna), Q51912 (protein)", "chain": "KEETPETPETDSEEEVTIKANLIFANGSTQTAEFKGTFEKATSEAYAYADTLKKDNGEYTVDVADKGYTLNIKFAGKEKTPEEPKEEVTIKANLIYADGKTQTAEFKGTFEEATAEAYRYADALKKDNGEYTVDVADKGYTLNIKFAGKEKTPEEPKEEVTIKANLIYADGKTQTAEFKGTFEEATAEAYRYADLLAKENGKYTVDVADKGYTLNIKFAGKEKTPEEPKEEVTIKANLIYADGKTQTAEFKGTFAEATAEAYRYADLLAKENGKYTADLEDGGYTINIRFAG"}}, "experiment_in_all_cases": "glycan array binding signal (z-score within array); higher = stronger binding", "details_in_all_cases": "glycan notation: IUPAC condensed, linker removed", "key": {"[1]": {"target": "GalNAc3S(b1-4)[Fuc(a1-3)]GlcNAc", "in_short": "(§1)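 Arrays were curated from the Consortium for Functional Glycomics database, 3228 in total, and kept only where the protein sequence was available. Binding is expressed as a within-array Z-score. This score was averaged across arrays of the same protein sequence at different concentrations or buffers and across linkers, and negative values can be read as non-binding.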"}, "GalNAc4S6S(b1-4)GlcNAc": {"target": "GalNAc4S6S(b1-4)GlcNAc", "in_short": "as §1"}, "GalNAc6S(b1-4)GlcNAc": {"target": "GalNAc6S(b1-4)GlcNAc", "in_short": "as §1"}, "Glc(a1-4)Glc": {"target": "Glc(a1-4)Glc", "in_short": "as §1"}, "[2]": {"target": "Glc(a1-4)Glc(a1-4)Glc(a1-4)Glc", "in_short": "as §1"}, "Glc(a1-6)Glc(a1-6)Glc": {"target": "Glc(a1-6)Glc(a1-6)Glc", "in_short": "as §1"}, "[3]": {"target": "Glc(a1-6)Glc(a1-6)Glc(a1-6)Glc", "in_short": "as §1"}, "Glc(b1-4)Glc": {"target": "Glc(b1-4)Glc", "in_short": "as §1"}, "Glc(b1-6)Glc": {"target": "Glc(b1-6)Glc", "in_short": "as §1"}, "GlcA(b1-3)Gal": {"target": "GlcA(b1-3)Gal", "in_short": "as §1"}, "GlcA(b1-3)GlcNAc": {"target": "GlcA(b1-3)GlcNAc", "in_short": "as §1"}, "GlcA(b1-6)Gal": {"target": "GlcA(b1-6)Gal", "in_short": "as §1"}, "[4]": {"target": "GlcA3S(b1-3)Gal(b1-4)GlcNAc(b1-2)Man", "in_short": "as §1"}, "[5]": {"target": "GlcA3S(b1-3)Gal(b1-4)GlcNAc(b1-3)Gal(b1-4)Glc", "in_short": "as §1"}, "[6]": {"target": "GlcNAc(a1-3)Gal(b1-4)GlcNAc", "in_short": "as §1"}, "[7]": {"target": "GlcNAc(a1-4)Gal(b1-3)GlcNAc", "in_short": "as §1"}, "[8]": {"target": "GlcNAc(a1-4)Gal(b1-4)GalNAc", "in_short": "as §1"}, "[9]": {"target": "GlcNAc(a1-4)Gal(b1-4)GlcNAc", "in_short": "as §1"}, "[10]": {"target": "GlcNAc(a1-4)Gal(b1-4)GlcNAc(b1-3)Gal(b1-4)Glc", "in_short": "as §1"}, "[11]": {"target": "GlcNAc(a1-4)Gal(b1-4)GlcNAc(b1-3)Gal(b1-4)GlcNAc", "in_short": "as §1"}, "[12]": {"target": "GlcNAc(a1-4)Gal(b1-4)GlcNAc(b1-3)Gal(b1-4)GlcNAc(b1-3)Gal(b1-4)GlcNAc", "in_short": "as §1"}, "[13]": {"target": "GlcNAc(a1-4)Gal(b1-4)GlcNAc(b1-3)Gal(b1-4)[Fuc(a1-3)]GlcNAc(b1-3)Gal(b1-4)[Fuc(a1-3)]GlcNAc", "in_short": "as §1"}, "[14]": {"target": "GlcNAc(a1-6)Gal(b1-4)GlcNAc", "in_short": "as §1"}, "[15]": {"target": "GlcNAc(b1-2)Gal(b1-3)GalNAc", "in_short": "as §1"}, "[16]": {"target": "GlcNAc(b1-2)Man(a1-3)[GlcNAc(b1-2)Man(a1-6)]Man(b1-4)GlcNAc(b1-4)GlcNAc", "in_short": "as §1"}, "[17]": {"target": "GlcNAc(b1-2)Man(a1-3)[GlcNAc(b1-2)Man(a1-6)]Man(b1-4)GlcNAc(b1-4)[Fuc(a1-6)]GlcNAc", "in_short": "as §1"}, "[18]": {"target": "GlcNAc(b1-2)Man(a1-3)[GlcNAc(b1-4)][GlcNAc(b1-2)Man(a1-6)]Man(b1-4)GlcNAc(b1-4)GlcNAc", "in_short": "as §1"}, "[19]": {"target": "GlcNAc(b1-2)Man(a1-3)[GlcNAc(b1-4)][GlcNAc(b1-2)Man(a1-6)]Man(b1-4)GlcNAc(b1-4)[Fuc(a1-6)]GlcNAc", "in_short": "as §1"}, "[20]": {"target": "GlcNAc(b1-2)[GlcNAc(b1-4)]Man(a1-3)[GlcNAc(b1-2)Man(a1-6)]Man(b1-4)GlcNAc(b1-4)GlcNAc", "in_short": "as §1"}, "[21]": {"target": "GlcNAc(b1-2)[GlcNAc(b1-4)]Man(a1-3)[GlcNAc(b1-4)][GlcNAc(b1-2)Man(a1-6)]Man(b1-4)GlcNAc(b1-4)GlcNAc", "in_short": "as §1"}, "[22]": {"target": "GlcNAc(b1-2)[GlcNAc(b1-4)]Man(a1-3)[GlcNAc(b1-4)][GlcNAc(b1-2)[GlcNAc(b1-6)]Man(a1-6)]Man(b1-4)GlcNAc(b1-4)GlcNAc", "in_short": "as §1"}, "[23]": {"target": "GlcNAc(b1-2)[GlcNAc(b1-4)]Man(a1-3)[GlcNAc(b1-4)][GlcNAc(b1-2)[GlcNAc(b1-6)]Man(a1-6)]Man(b1-4)GlcNAc(b1-4)[Fuc(a1-6)]GlcNAc", "in_short": "as §1"}, "[24]": {"target": "GlcNAc(b1-2)[GlcNAc(b1-6)]Man(a1-6)[GlcNAc(b1-2)Man(a1-3)]Man(b1-4)GlcNAc(b1-4)GlcNAc", "in_short": "as §1"}, "[25]": {"target": "GlcNAc(b1-2)[GlcNAc(b1-6)]Man(a1-6)[GlcNAc(b1-2)Man(a1-3)]Man(b1-4)GlcNAc(b1-4)[Fuc(a1-6)]GlcNAc", "in_short": "as §1"}, "[26]": {"target": "GlcNAc(b1-2)[GlcNAc(b1-6)]Man(a1-6)[GlcNAc(b1-4)][GlcNAc(b1-2)Man(a1-3)]Man(b1-4)GlcNAc(b1-4)GlcNAc", "in_short": "as §1"}, "GlcNAc(b1-3)Fuc": {"target": "GlcNAc(b1-3)Fuc", "in_short": "as §1"}, "GlcNAc(b1-3)Gal": {"target": "GlcNAc(b1-3)Gal", "in_short": "as §1"}, "[27]": {"target": "GlcNAc(b1-3)Gal(b1-3)GalNAc", "in_short": "as §1"}}, "note": "The list shows a part of the results."}
{"binder": "B1", "values": [{"measurement": "glycan array binding signal (z-score)", "setting": "[1]", "result": 0.473}, {"measurement": "glycan array binding signal (z-score)", "setting": "GalNAc4S6S(b1-4)GlcNAc", "result": -0.886}, {"measurement": "glycan array binding signal (z-score)", "setting": "GalNAc6S(b1-4)GlcNAc", "result": -1.1}, {"measurement": "glycan array binding signal (z-score)", "setting": "Glc(a1-4)Glc", "result": -0.221}, {"measurement": "glycan array binding signal (z-score)", "setting": "[2]", "result": -0.236}, {"measurement": "glycan array binding signal (z-score)", "setting": "Glc(a1-6)Glc(a1-6)Glc", "result": -0.342}, {"measurement": "glycan array binding signal (z-score)", "setting": "[3]", "result": -0.375}, {"measurement": "glycan array binding signal (z-score)", "setting": "Glc(b1-4)Glc", "result": -0.438}, {"measurement": "glycan array binding signal (z-score)", "setting": "Glc(b1-6)Glc", "result": 0.408}, {"measurement": "glycan array binding signal (z-score)", "setting": "GlcA(b1-3)Gal", "result": -0.17}, {"measurement": "glycan array binding signal (z-score)", "setting": "GlcA(b1-3)GlcNAc", "result": -0.785}, {"measurement": "glycan array binding signal (z-score)", "setting": "GlcA(b1-6)Gal", "result": 2.19}, {"measurement": "glycan array binding signal (z-score)", "setting": "[4]", "result": -0.346}, {"measurement": "glycan array binding signal (z-score)", "setting": "[5]", "result": -0.921}, {"measurement": "glycan array binding signal (z-score)", "setting": "[6]", "result": -0.811}, {"measurement": "glycan array binding signal (z-score)", "setting": "[7]", "result": 0.152}, {"measurement": "glycan array binding signal (z-score)", "setting": "[8]", "result": 1.64}, {"measurement": "glycan array binding signal (z-score)", "setting": "[9]", "result": -0.397}, {"measurement": "glycan array binding signal (z-score)", "setting": "[10]", "result": -0.962}, {"measurement": "glycan array binding signal (z-score)", "setting": "[11]", "result": -0.246}, {"measurement": "glycan array binding signal (z-score)", "setting": "[12]", "result": -0.604}, {"measurement": "glycan array binding signal (z-score)", "setting": "[13]", "result": 2.65}, {"measurement": "glycan array binding signal (z-score)", "setting": "[14]", "result": -0.584}, {"measurement": "glycan array binding signal (z-score)", "setting": "[15]", "result": -1.11}, {"measurement": "glycan array binding signal (z-score)", "setting": "[16]", "result": -0.131}, {"measurement": "glycan array binding signal (z-score)", "setting": "[17]", "result": 1.7}, {"measurement": "glycan array binding signal (z-score)", "setting": "[18]", "result": -0.819}, {"measurement": "glycan array binding signal (z-score)", "setting": "[19]", "result": -1.02}, {"measurement": "glycan array binding signal (z-score)", "setting": "[20]", "result": 0.094}, {"measurement": "glycan array binding signal (z-score)", "setting": "[21]", "result": -0.981}, {"measurement": "glycan array binding signal (z-score)", "setting": "[22]", "result": -0.599}, {"measurement": "glycan array binding signal (z-score)", "setting": "[23]", "result": -0.418}, {"measurement": "glycan array binding signal (z-score)", "setting": "[24]", "result": -0.522}, {"measurement": "glycan array binding signal (z-score)", "setting": "[25]", "result": 0.726}, {"measurement": "glycan array binding signal (z-score)", "setting": "[26]", "result": -0.709}, {"measurement": "glycan array binding signal (z-score)", "setting": "GlcNAc(b1-3)Fuc", "result": -1.02}, {"measurement": "glycan array binding signal (z-score)", "setting": "GlcNAc(b1-3)Gal", "result": -0.392}, {"measurement": "glycan array binding signal (z-score)", "setting": "[27]", "result": 0.17}]}
